The text below walks through data of PMC8486872, “A rational blueprint for the design of chemically-controlled protein switches” (Nature Communications, 2021).

The source holds more than one record for some entries. This list holds those alone. An entry can have further records. For part of these data: The values listed for one entry read as repeated measurements on other runs, samples or individuals. For part of these data: Values that stand side by side read as repeated measurements on other runs, samples or individuals; one of them may be the mean.

The test system of experiment [1] is anti-HER2 CAR expression in HEK293T cells. Put plainly: Flow cytometry of surface expression of anti-HER2 CAR induced by AIR-1-TF. Particulars: 1 µM Drug-1, 24 h. (A flow cytometer gives signals particle by particle.)
The subject of experiment [2] is SEAP and Luciferase expression in HEK293T cells. Kind of experiment: SIMO designer cells (AIR-1/2-GEMS + CDH-1/2-TF). To be noted: Fig S13i, CDH-1-TF control Luciferase expression only.

With `CN(C)CC#Cc1ccc(OCCCc2sc(N3CCc4cccc(C(=O)Nc5nc6ccccc6s5)c4C3)nc2C(=O)O)c(F)c1`, the “anti-HER2 CAR expression, negative control (Neg, no TF switch)” value in experiment [1] was 4.89 and 4.097. Moreover, the Luciferase is listed as 2.233 RLU, 4.772 RLU, 6.414 RLU in experiment [2] (Drug-1 0.1 nM) and 1.251 RLU, 5.155 RLU, 4.586 RLU in experiment [2] (Drug-1 1 nM).
